## Percent effect of library compounds

Amino acid sequences for entries named in this document (tags omitted). Residues count along the entry.
UniProt A4I591, 1-473: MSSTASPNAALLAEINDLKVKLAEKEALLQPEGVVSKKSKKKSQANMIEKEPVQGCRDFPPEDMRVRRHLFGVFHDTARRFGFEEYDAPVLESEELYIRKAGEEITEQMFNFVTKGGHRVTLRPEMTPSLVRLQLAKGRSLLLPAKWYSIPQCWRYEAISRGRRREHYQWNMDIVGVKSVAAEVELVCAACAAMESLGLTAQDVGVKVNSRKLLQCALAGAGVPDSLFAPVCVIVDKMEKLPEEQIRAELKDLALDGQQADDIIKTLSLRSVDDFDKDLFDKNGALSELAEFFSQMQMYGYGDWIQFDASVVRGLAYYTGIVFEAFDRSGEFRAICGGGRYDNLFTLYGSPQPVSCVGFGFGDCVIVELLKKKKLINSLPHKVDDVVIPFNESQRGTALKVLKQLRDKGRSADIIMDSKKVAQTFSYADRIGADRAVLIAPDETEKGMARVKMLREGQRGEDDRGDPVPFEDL
UniProt Q4DA54, 1-478: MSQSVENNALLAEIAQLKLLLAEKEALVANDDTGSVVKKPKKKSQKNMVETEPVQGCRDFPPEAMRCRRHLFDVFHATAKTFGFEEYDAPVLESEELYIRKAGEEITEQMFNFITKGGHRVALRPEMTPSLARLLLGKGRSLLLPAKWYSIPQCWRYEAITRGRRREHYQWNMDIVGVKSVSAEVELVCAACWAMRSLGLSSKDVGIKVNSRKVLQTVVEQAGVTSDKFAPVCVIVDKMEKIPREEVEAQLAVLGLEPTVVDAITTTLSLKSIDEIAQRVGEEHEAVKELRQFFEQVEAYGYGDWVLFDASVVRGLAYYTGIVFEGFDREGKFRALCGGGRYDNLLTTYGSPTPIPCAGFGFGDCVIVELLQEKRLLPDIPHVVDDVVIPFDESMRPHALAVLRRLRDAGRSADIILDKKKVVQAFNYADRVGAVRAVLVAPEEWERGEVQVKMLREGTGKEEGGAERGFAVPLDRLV

From ChEMBL document CHEMBL3988442, “University of Dundee, Small-Polar-MMV Screening Library” (2021).

LiHisRS: 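Histidine-tRNA ligase, Leishmania infantum (UniProt A4I591). Enzyme assay of histidyl-tRNA synthetase; the read-out is not stated. Tested at 30 µM. Higher reads as stronger inhibition (inferred: compounds with an IC50 in retests scored well above the rest). The assay is labelled LdHisRS but filed under L. infantum. About 69,000 compounds were tested under these conditions; 0.6% (about 410) showed 50% or more at least once.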
TcHisRS: 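Enzyme assay of histidyl-tRNA synthetase; the read-out is not stated. Target: Histidine-tRNA ligase, Trypanosoma cruzi CL Brener (UniProt Q4DA54). Concentration: 30 µM. Direction is inferred from retests: higher values go with stronger inhibition. Size under these conditions: about 69,000 compounds, about 31 of them at 50% or above in at least one test.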

The filed quantity is “Percent Effect” (%). The controls that fix the scale are not given in the record; negative values are as filed. Compounds were drawn at random from those tested, without regard to their results.

compound	LiHisRS	TcHisRS
NC(=O)c1ccc2c(c1)nc1n2CCN(Cc2ccccc2)C1	17.14%	3.261%
CCS(=O)(=O)N1CCC(c2nnc(C(F)(F)F)o2)CC1	11.86%	-1.463%
CC1(c2ccccc2)CCC(=O)N(CCN2CCOCC2)C1 (stereo not shown)	18.18%	9.184%
Cc1nc(-c2ccccc2)sc1CSCCC(N)=O	23.68%	5.028%
Cc1ccc(C(=O)NCC2CCCCO2)c(=O)[nH]1 (stereo not shown)	6.667%	-1.734%
Cc1cnn(CCC(=O)N2CCCN(c3ncccc3C#N)CC2)c1	18.92%	1.128%
COc1ccc(F)c(-c2cc(C(=O)NC3CC3)ccn2)c1	15.69%	7.407%
OCCN1CC2(CCN(c3ccccc3)C2)C1	36%	0%
CC(CC(F)(F)F)NCc1ccccc1-n1ccnc1 (stereo not shown)	13.95%	10.71%
O=C(C1CC=CC1)N1CCCn2nnc(CNc3ncccn3)c2C1	16.98%	6.667%
CCNc1ncc(C(=O)NC(CCN(C)C)c2ccccc2)cn1 (stereo not shown)	-11.43%	3.896%
COc1ccc(-c2nc(C3CCNCC3)cc3c2ncn3C)cc1	12%	6.186%
CS(=O)(=O)NCC1CCCN(c2ccc(C#N)cn2)C1 (stereo not shown)	13.33%	4.891%
COCc1nc(NCC2CCS(=O)(=O)C2)c2cnn(C)c2n1 (stereo not shown)	9.375%	3.191%
CC(C)(C)c1cc(NC(=O)CN2CCn3c(nnc3C3CC3)C2)on1	1.786%	1.183%
CCc1ccc(CN2CCNC(C(=O)N3CCN(C)CC3)C2)o1 (stereo not shown)	15.71%	1.064%
O=C(CC1CCCC1)N1CCn2cc(Cn3cccn3)nc2C1	12%	9.804%
O=C1CC(N(C(=O)c2ccc3[nH]c4c(c3c2)CCCC4)C2CC2)C(=O)N1 (stereo not shown)	3.371%	3.008%
O=C(c1ccncc1)N1CCC2(CC1)CC(Oc1cccnc1)CO2 (stereo not shown)	15.69%	-0.5464%
CC(=O)c1cccc(CN2CCCC23CCN(c2ccccn2)CC3)c1	28.57%	6.061%
Cc1cnn(CC2CCCCN2CCn2cncn2)c1 (stereo not shown)	17.57%	4.151%
CSCCC(NC(=O)c1ccc2ccccc2n1)C(=O)NC1CC1 (stereo not shown)	6.667%	0.578%
CCOC(=O)CSc1nnc(C(N)CC(C)C)o1 (stereo not shown)	19.57%	11%
CN(Cc1ccccc1Br)C(=O)Cn1nc(-c2ccc(F)cc2)oc1=O	11.43%	-5.435%
O=C(NC[C@H]1OC[C@@H](NC2CCCCC2)[C@@H]1O)c1cccs1	11.11%	2.97%
O=C(NCCN1CCOCC1)c1cc(COc2ccccc2F)[nH]n1	2.857%	6.122%
Nc1ccc(CC2COc3ccccc3C2)cn1 (stereo not shown)	-1.042%	5.587%
COC(=O)CN1CC2(CCNCC2)COc2ccccc2S1(=O)=O	17.95%	2.439%
CC(C)N1CCCC(CNC(=O)CN(C)S(=O)(=O)c2ccccc2)C1 (stereo not shown)	5.181%	8.287%
CCCN(CC)c1ccc(C(=O)N2CCCC2c2cnn(C)c2)cn1 (stereo not shown)	13.39%	4.624%
COc1c(NS(=O)(=O)c2ccc(C)c(C)c2)c(C)nn1C	24.24%	5.435%
CCC1CCCCN1C(=O)CCn1cnc2sccc2c1=O (stereo not shown)	12.5%	5.063%
CCc1noc(C(C)N(C)CC(=O)Nc2c(C)cccc2C)n1 (stereo not shown)	19.23%	0%
O=C([C@@H]1CCCO1)N1CCOCC2(CCN(Cc3cccnc3)C2)C1 (stereo partly shown)	11.82%	9.524%
CC(C)C(NC(=O)c1ccccc1)C(=O)N1CCC2(CC1)OCCO2 (stereo not shown)	9.244%	6.863%
CCOc1cc(C(=O)n2cccn2)cc(OCC)c1OCC	-2.151%	1.554%
Cc1ncsc1C(=O)N1CC[C@@H]2[C@@H](CC1)OCCN2c1cccnc1	10.53%	5.376%
C1CC(N2C[C@@H]3COC[C@]3(COCC3CCOCC3)C2)C1	6.364%	0%
COc1ccc(C2(c3nc(-c4cnn(C)c4)no3)CCOCC2)cc1	19.18%	11.11%
Cc1cc(C(=O)N(C)Cc2cccs2)nc(N2CCCCC2)n1	15.52%	1.739%
Cc1nn2c(NCC(N)=O)cc(-c3ccccc3)nc2c1C	-6.25%	-1.064%
CCc1nc(C)ncc1C(=O)N1CC(C)CN(C)c2ccccc21 (stereo not shown)	21.28%	6.358%
COc1cccc(CC2CCCN2CCCO)c1 (stereo not shown)	33.33%	-1.149%
CC(=O)N(Cc1noc(C)n1)C1CCN(Cc2ccc(C#N)cc2)C1 (stereo not shown)	17.09%	4.274%
Cc1nccn1-c1cccc(C2CCCN2)n1 (stereo not shown)	36.88%	9.302%
COc1ccc(-c2cc(C(=O)NCCC(C)C)n(C)n2)cc1	1.124%	-3.627%
COc1ccc2c(c1)CN(CC1CC1)C(=O)CCN2CC(C)(C)O	12.37%	2.312%
CC(C)NC(=O)C[C@@H]1CCNC[C@@H]1Cc1cc(-c2ccccc2)on1	25%	1.493%
Cn1cccc1C(O)CNC(=O)c1ccc(F)c(F)c1 (stereo not shown)	12.2%	10.1%
O=C(c1cc[nH]n1)N1CCc2onc(COc3cccnc3)c2C1	20%	12.75%
c1cnnc(N2CCCC2CNCc2cccs2)c1 (stereo not shown)	25.64%	12.25%

Once more, the final 4:

| compound | LiHisRS | TcHisRS |
|---|---|---|
| `CC(C)NC(=O)C[C@@H]1CCNC[C@@H]1Cc1cc(-c2ccccc2)on1` | 25% | 1.493% |
| `Cn1cccc1C(O)CNC(=O)c1ccc(F)c(F)c1` (stereo not shown) | 12.2% | 10.1% |
| `O=C(c1cc[nH]n1)N1CCc2onc(COc3cccnc3)c2C1` | 20% | 12.75% |
| `c1cnnc(N2CCCC2CNCc2cccs2)c1` (stereo not shown) | 25.64% | 12.25% |